± gives the standard deviation of the averaged measurements. Whole data set: some 1,600 compounds, median “normalized intracellular growth (luminescence, IQM-normalized) in RAW264.7 macrophages” near 1, cut for the lowest 2% near 0.43. The list shows a part of the results.
Tested on: Salmonella enterica serovar Typhimurium SL1344
Test: normalized intracellular growth (luminescence, IQM-normalized) in RAW264.7 macrophages (fraction of plate interquartile mean); higher = more bacterial growth (less inhibition)
Conditions: 10 µM

| SMILES | normalized intracellular growth (time point: T3 (3 h)) | normalized intracellular growth (time point: Tfinal (~6 h)) |
| --- | --- | --- |
| CC(c1cc2ccccc2s1)N(O)C(N)=O (configuration not stated) | 1.03 ± 0.036 | 1.16 ± 0.35 |
| CN(C)CCc1c[nH]c2ccc(C[C@H]3COC(=O)N3)cc12 | 1.02 ± 0.045 | 0.955 ± 0.058 |
| CN(C)CCC=C1c2ccccc2C=Cc2ccccc21 | 0.963 ± 0.028 | 1.13 ± 0.034 |
| NS(=O)(=O)c1cc2c(cc1Cl)NCNS2(=O)=O | 0.982 ± 0.02 | 1.08 ± 0.012 |
| Nc1ccc(C(=O)Oc2ccccc2)c(O)c1 | 1.05 ± 0.074 | 0.898 ± 0.21 |
| CNNCc1ccc(C(=O)NC(C)C)cc1 | 1.01 ± 0.044 | 0.854 ± 0.17 |
| O=c1[nH]c(=O)n([C@H]2C[C@H](O)[C@@H](CO)O2)cc1F | 0.699 ± 0.043 | 0.209 ± 0.03 |
| Oc1ccc(O)cc1 | 0.977 ± 0.093 | 1.09 ± 0.2 |
| COc1cc2nc(N3CCN(C(=O)C4CCCO4)CC3)nc(N)c2cc1OC (configuration not stated) | 1.1 ± 0.081 | 1.12 ± 0.12 |
| CC1CCC(NC(=O)N(CCCl)N=O)CC1 (configuration not stated) | 0.999 ± 0.016 | 0.899 ± 0.28 |
| Nc1ccc(S(=O)(=O)Nc2ccc(Cl)nn2)cc1 | 0.949 ± 0.026 | 0.834 ± 0.022 |
| Cc1cc2nc3ccc(N(C)C)cc3[s+]c2cc1N | 1.43 ± 0.054 | 1.55 ± 0.073 |
| CN(C)CCCOc1nn(Cc2ccccc2)c2ccccc12 | 0.956 ± 0.38 | 1.47 ± 0.074 |
| S=C=Nc1ccc(N=C=S)cc1 | 1.04 ± 0.035 | 1.01 ± 0.11 |
| OC[C@@H](O)[C@@H](O)[C@H](O)[C@@H](O)CO | 0.995 ± 0.034 | 0.805 ± 0.19 |
| C#C[C@]1(O)CC[C@H]2[C@@H]3[C@H](C)CC4=C(CCC(=O)C4)[C@H]3CC[C@@]21C | 1.07 ± 0.016 | 1.19 ± 0.056 |
| COc1cc(C(=O)N2CCOCC2)cc(OC)c1OC | 1.071 ± 0.0099 | 1.12 ± 0.24 |
| CC(=O)OCC(=O)[C@@]1(O)CC[C@H]2[C@@H]3CCC4=CC(=O)CC[C@]4(C)[C@H]3C(=O)C[C@@]21C | 0.964 ± 0.041 | 0.941 ± 0.037 |
| CC(=O)OCC(=O)[C@@]1(O)CC[C@H]2[C@@H]3CCC4=CC(=O)C=C[C@]4(C)[C@@]3(F)[C@@H](O)C[C@@]21C | 1.01 ± 0.05 | 0.768 ± 0.15 |
| CCCCC(=O)O[C@]1(C(=O)CO)[C@@H](C)C[C@H]2[C@@H]3CCC4=CC(=O)C=C[C@]4(C)[C@@]3(F)[C@@H](O)C[C@@]21C | 0.7 ± 0.11 | 0.98 ± 0.054 |
| O=C(O)Cc1ccccc1Nc1c(Cl)cccc1Cl | 1.02 ± 0.032 | 0.963 ± 0.038 |
| C[C@@H](c1ncncc1F)[C@](O)(Cn1cncn1)c1ccc(F)cc1F | 1.01 ± 0.065 | 0.833 ± 0.3 |
| C[C@@H]1CC(=O)NN=C1c1ccc(NN=C(C#N)C#N)cc1 | 1.14 ± 0.042 | 0.946 ± 0.27 |

| SMILES | normalized intracellular growth (time point: T3 (3 h)) | normalized intracellular growth (time point: Tfinal (~6 h)) |
| --- | --- | --- |
| N=c1ccn2c(n1)O[C@H]1[C@H](O)[C@@H](CO)O[C@H]12 | 1 ± 0.029 | 1.16 ± 0.016 |
| CC(C)Cc1ccc([C@H](C)C(=O)O)cc1 | 0.977 ± 0.067 | 1.24 ± 0.13 |
| CS(=O)(=O)c1ccc([C@@H](O)[C@@H](CO)NC(=O)C(Cl)Cl)cc1 | 0.925 ± 0.07 | 0.767 ± 0.047 |
| O=c1[nH]cc(F)c(=O)[nH]1 | 0.731 ± 0.089 | 0.153 ± 0.006 |
| C[C@]12C=CC(=O)C=C1CC[C@@H]1[C@@H]2[C@@H](O)C[C@@]2(C)[C@H]1CC[C@]2(O)C(=O)CO | 0.8 ± 0.15 | 0.888 ± 0.078 |
| O=C1C(CC[S+]([O-])c2ccccc2)C(=O)N(c2ccccc2)N1c1ccccc1 (configuration not stated) | 1.14 ± 0.13 | 1.15 ± 0.036 |
| NS(=O)(=O)c1cc2c(cc1Cl)N=C(CSCc1ccccc1)NS2(=O)=O | 1.01 ± 0.057 | 1.12 ± 0.1 |
| CC(=O)OC/C=C(C)/C=C/C=C(C)/C=C/C1=C(C)CCCC1(C)C | 1.13 ± 0.075 | 1.08 ± 0.042 |
| OC[C@@H](O)[C@@H](O)CO | 0.947 ± 0.1 | 1.08 ± 0.11 |
| CC(C)[C@@H]1CC[C@@H](C)C[C@H]1O | 0.967 ± 0.013 | 0.961 ± 0.045 |
| CO[C@@]1(NC(=O)C(C(=O)O)c2ccc(O)cc2)C(=O)N2C(C(=O)O)=C(CSc3nnnn3C)CO[C@@H]21 (some centres not stated) | 0.996 ± 0.041 | 1.14 ± 0.23 |
| O=C1CC[C@@H](C(=O)O)N1 | 1.03 ± 0.091 | 1.1 ± 0.02 |
| C#C[C@]1(O)CC[C@H]2[C@@H]3CCC4=CC(=O)CC[C@@H]4[C@H]3CC[C@@]21C | 1.01 ± 0.072 | 1.04 ± 0.13 |
| C#C[C@]1(OC(C)=O)CC[C@H]2[C@@H]3CCC4=C[C@@H](OC(C)=O)CC[C@@H]4[C@H]3CC[C@@]21C | 1.05 ± 0.043 | 1.07 ± 0.16 |
| Nc1ccc(S(=O)(=O)Nc2ncccn2)cc1 | 1.07 ± 0.011 | 1.06 ± 0.059 |
| Clc1ccccc1CN1CCc2sccc2C1 | 1 ± 0.013 | 1.13 ± 0.15 |
| CCC(=O)O[C@H](CC(=O)O)C[N+](C)(C)C | 1.06 ± 0.052 | 1 ± 0.028 |
| CO[C@@]1(NC(=O)C2SC(=C(C(N)=O)C(=O)O)S2)C(=O)N2C(C(=O)O)=C(CSc3nnnn3C)CS[C@@H]21 (some centres not stated) | 1.02 ± 0.0062 | 1.05 ± 0.14 |
| CN(C)CCCN1c2ccccc2CCc2ccc(Cl)cc21 | 0.965 ± 0.051 | 0.944 ± 0.039 |
| Cc1cc(C(C)(C)CC(C)(C)C)ccc1OCCOCC[N+](C)(C)Cc1ccccc1 | 1.12 ± 0.014 | 0.563 ± 0.25 |
| Cc1cc(NC(=O)C2=C(O)c3ccccc3S(=O)(=O)N2C)no1 | 0.971 ± 0.038 | 1.06 ± 0.17 |
| COC(=O)C1=C(C)NC(C)=C(C(=O)OC)C1c1ccccc1[N+](=O)[O-] | 1.02 ± 0.045 | 1 ± 0.06 |
| C#C[C@]1(O)CC[C@H]2[C@@H]3CCc4cc(OC)ccc4[C@H]3CC[C@@]21C | 1.02 ± 0.064 | 1.18 ± 0.087 |

Part of the list above in order of formula weight, high to low:

| SMILES | normalized intracellular growth (time point: T3 (3 h)) | normalized intracellular growth (time point: Tfinal (~6 h)) |
| --- | --- | --- |
| CO[C@@]1(NC(=O)C(C(=O)O)c2ccc(O)cc2)C(=O)N2C(C(=O)O)=C(CSc3nnnn3C)CO[C@@H]21 (some centres not stated) | 0.996 ± 0.041 | 1.14 ± 0.23 |
| O=C1C(CC[S+]([O-])c2ccccc2)C(=O)N(c2ccccc2)N1c1ccccc1 (configuration not stated) | 1.14 ± 0.13 | 1.15 ± 0.036 |
| CS(=O)(=O)c1ccc([C@@H](O)[C@@H](CO)NC(=O)C(Cl)Cl)cc1 | 0.925 ± 0.07 | 0.767 ± 0.047 |
| COC(=O)C1=C(C)NC(C)=C(C(=O)OC)C1c1ccccc1[N+](=O)[O-] | 1.02 ± 0.045 | 1 ± 0.06 |
| Cc1cc(NC(=O)C2=C(O)c3ccccc3S(=O)(=O)N2C)no1 | 0.971 ± 0.038 | 1.06 ± 0.17 |
| CC(=O)OC/C=C(C)/C=C/C=C(C)/C=C/C1=C(C)CCCC1(C)C | 1.13 ± 0.075 | 1.08 ± 0.042 |
| C#C[C@]1(O)CC[C@H]2[C@@H]3CCc4cc(OC)ccc4[C@H]3CC[C@@]21C | 1.02 ± 0.064 | 1.18 ± 0.087 |
| Nc1ccc(S(=O)(=O)Nc2ncccn2)cc1 | 1.07 ± 0.011 | 1.06 ± 0.059 |
| N=c1ccn2c(n1)O[C@H]1[C@H](O)[C@@H](CO)O[C@H]12 | 1 ± 0.029 | 1.16 ± 0.016 |
| O=C1CC[C@@H](C(=O)O)N1 | 1.03 ± 0.091 | 1.1 ± 0.02 |

Source: the supplement of paper PMC6331611
